Experimental data published in patent US9545447B2, “Polymer-drug systems” (THE TEXAS A&M UNIVERSITY SYSTEM, priority 2013, dated 2017).

System: A549 cells, a human lung carcinoma cell line
Assay: Cell viability (WST-1), A549 cells
Assay type: cell-based
Details: Table 1, 72 h, PTX as free PTX
Procedure: Polymer paclitaxel and free paclitaxel were tested in KB cells, a human nasal pharyngeal cancer cell line and A549 cells, a human lung carcinoma cell line. KB and A549 cells (ATCC, Manassas, Va.) were maintained in monolayer cultures in folate free RPMI (Life Technologies, Carlsbad, Calif.) and F-12K media (Mediatech, Manassas, Va.) respectively, supplemented with 10% fetal bovine serum and penicillin/streptomycin antibiotics. For screening purposes 2,500 cells in 100 μL of complete cell culture media were plated in a 96 well plate (Corning, Lowell, Mass.) in triplicates and were then incubated for 24 h in a humidified CO2 cell culture incubator maintained at 37° C. Serial dilutions of polymer-paclitaxel conjugates and paclitaxel were prepared in PBS and added to cells in a volume of 10 μL. The cells were either incubated for a short period of 2 h or for longer continuous incubation of 72 h. After 2 h incubation, the media was replaced with 110 μL of fresh complete RPMI. Cell viability was assessed by using a colorimetric WST-1 cell proliferation kit (Roche, Indianapolis, Ind.) and following manufacturer's instructions. Cell viability was calculated as a percentage of the control cells treated with no drugs. […]

CC(=O)O[C@H]1C(=O)[C@@]2(C)[C@H]([C@H](OC(=O)c3ccccc3)[C@]3(O)C[C@H](OC(=O)[C@H](O)[C@@H](NC(=O)c4ccccc4)c4ccccc4)C(C)=C1C3(C)C)[C@]1(OC(C)=O)CO[C@@H]1C[C@@H]2O [PTX, paclitaxel]
IC50: 0.287 µM
